Results published in paper PMC8993893.

Target: FLAG-tagged STUB1 lacking the UBOX domain
Assay: co-IP; anti-FLAG IP of FLAG-STUB1 variants from lysates of sgSTUB1-expressing HEK293T cells co-transfected with Myc-JAK1 and V5-IFNγ-R1; NP-40 buffer (1% NP40, 150 mM NaCl, 10 mM TrisHCl, pH 7.4); 10 μg IP antibody 2 h at 4 °C, Protein A beads 2 h at 4 °C; immunoblot

binding: binds
B1: V5-tagged IFNγ-R1 (receptor, UniProt P15260 18-489)
chain: EMGTADLGPSSVPTPTNVTIESYNMNPIVYWEYQIMPQVPVFTVEVKNYGVKNSEWIDACINISHHYCNISDHVGDPSNSLWVRVKARVGQKESAYAKSEEFAVCRDGKIGPPKLDIRKEEKQIMIDIFHPSVFVNGDEQEVDYDPETTCYIRVYNVYVRMNGSEIQYKILTQKEDDCDEIQCQLAIPVSSLNSQYCVSAEGVLHVWGVTTEKSKEVCITIFNSSIKGSLWIPVVAALLLFLVLSLVFICFYIKKINPLKEKSIILPKSLISVVRSATLETKPESKYVSLITSYQPFSLEKEVVCEEPLSPATVPGMHTEDNPGKVEHTEELSSITEVVTTEENIPDVVPGSHLTPIERESSSPLSSNQSEPGSIALNSYHSRNCSESDHSRNGFDTDSSCLESHSSLSDSEFPPNNKGEIKTEGQELITVIKAPTSFGYDKPHVLVDLLVDDSGKESLIGYRPTEDSKEFS

No constants are given. Whether binding was seen depends on the method and setting. Binding seen in cells or lysates may run through a third protein. Binding can be weak; no strength is given. Where a sequence is shown, tags or fusion partners need not be part of it.
